Primary screen of a compound library

By UniProt entry, the sequences of proteins in these tests, tags left out.
UniProt E9BF75, entry or part of it: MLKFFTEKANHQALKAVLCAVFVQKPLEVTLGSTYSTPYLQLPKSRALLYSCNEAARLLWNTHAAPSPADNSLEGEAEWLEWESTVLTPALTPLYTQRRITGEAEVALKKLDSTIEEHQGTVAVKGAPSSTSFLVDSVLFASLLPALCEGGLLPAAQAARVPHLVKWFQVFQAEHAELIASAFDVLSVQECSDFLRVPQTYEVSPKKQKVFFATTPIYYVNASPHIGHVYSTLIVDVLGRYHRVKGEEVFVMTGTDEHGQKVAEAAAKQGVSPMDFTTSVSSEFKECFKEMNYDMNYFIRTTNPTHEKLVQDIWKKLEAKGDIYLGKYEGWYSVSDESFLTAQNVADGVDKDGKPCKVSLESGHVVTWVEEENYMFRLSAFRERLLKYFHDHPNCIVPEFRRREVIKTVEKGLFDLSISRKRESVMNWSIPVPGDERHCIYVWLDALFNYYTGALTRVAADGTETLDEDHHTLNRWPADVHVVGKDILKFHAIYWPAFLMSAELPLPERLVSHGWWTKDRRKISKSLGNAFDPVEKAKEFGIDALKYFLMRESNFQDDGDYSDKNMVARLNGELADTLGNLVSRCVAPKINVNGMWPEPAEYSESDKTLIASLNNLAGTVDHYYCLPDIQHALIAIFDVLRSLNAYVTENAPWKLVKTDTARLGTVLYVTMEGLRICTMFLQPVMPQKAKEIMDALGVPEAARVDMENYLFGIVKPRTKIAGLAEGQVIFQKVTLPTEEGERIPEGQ

Data taken from ChEMBL document CHEMBL3988442, “University of Dundee, Small-Polar-MMV Screening Library” (2021).

Mtb heat-shock: 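Assay on Mycobacterium tuberculosis, filed only as a heat shock assay from Cornell; the read-out is not stated. The concentration is filed as 10 mM, unlikely as a test dose, so the dose is not known. Direction is inferred from retests: higher values go with stronger inhibition. About 69,000 compounds were tested under these conditions; 1.4% (about 930) showed 50% or more at least once.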
Mtb growth Cornell: 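Whole-cell assay for inhibitors of Mycobacterium tuberculosis growth, labelled Cornell in the record; the read-out is not stated. The concentration is filed as 10 mM, unlikely as a test dose, so the dose is not known. The record gives no direction; compounds strong in two other growth screens of this library score well above the rest, so higher reads as stronger inhibition. Size under these conditions: about 53,000 compounds, about 900 of them at 50% or above in at least one test.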
LdMetRS: 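Methionyl-tRNA synthetase (putative), Leishmania donovani (UniProt E9BF75). Primary screen of methionyl-tRNA synthetase; the read-out is not stated. The test concentration is not given. The values are filed as inhibition. About 68,000 compounds were tested under these conditions; 0.035% (about 24) showed 50% or more at least once.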

Results are percentages, as filed.
The controls that fix the scale are not given in the record; negative values are as filed.
Compounds were drawn at random from those tested, without regard to their results.
A dash means the value is not listed here; it may have been measured.

structure,Mtb heat-shock,Mtb growth Cornell,LdMetRS
Cc1nccn1[C@@H]1CC[C@@H](NC(=O)Cn2c(C)nc3ccccc32)[C@H]1O,-39.81%,10.82%,12.26%
O=C(N1CCOCC1)N1CCC2(CC1)CN(c1ccccn1)CCO2,-53.1%,-17.38%,-0.6667%
C=Cc1ccc(CN2C(=O)C3(CCNCC3)Nc3ccccc32)cc1,97.35%,-,13.75%
CN(Cc1nccs1)C1CCN(c2cccc(-c3cscn3)c2)CC1,6.649%,-,7.467%
COc1ccc(C(=O)N(C)Cc2ncc(C)c(OC)c2C)c(OC)c1,-8.892%,29.53%,14.09%
Cc1ccc(N2CCCC(Nc3nn4cc(C)nc4s3)C2)nn1 (centres unmarked),4.228%,-,15.97%
c1cnn(CC2CN(Cc3nnc(C4CC4)o3)CCO2)c1 (centres unmarked),-7.455%,-14.65%,9.777%
CCN(Cc1nc(COC)no1)Cc1cccnc1NC(=O)C(C)(C)C,1.925%,-0.4534%,15.66%
c1ccc(CN2CCC3(CC2)CCN(Cc2cccnc2)C3)nc1,-,-,8.955%
Cc1cccc(CN2CCN(Cc3ccccc3)CC(O)C2)n1 (centres unmarked),17.39%,-,17.03%
CC(C)N1CC(c2ncc(-c3ccc4c(c3)OCCO4)[nH]2)CC1=O (centres unmarked),-14.81%,18.04%,-2.799%
Cc1ccc(S(=O)(=O)N2CCN(Cc3ccncc3)CC2)c(Cl)c1,-25.6%,4.723%,16.72%
Cc1cc(CNCC2(O)CCOCC2)ccc1Br,-168.1%,-,-2.115%
[H][C@]12CC[C@@]3(N=C(CC)N(CCOC)C3=O)[C@@]1([H])CN(S(=O)(=O)CC)C2,0.627%,28.9%,-
Cc1noc(C2CCN(C(=O)c3ccc(N(C)C)nc3)CC2)n1,15.77%,16.59%,5.521%
Cc1ccc2c(c1)nc1n2[C@@H](CNC(=O)c2cccnc2)COC1,-17.8%,8.061%,13.22%
CC(C)c1ccc(-n2ncc(C(=O)N(C)C3CCN(C)CC3)c2N)cc1,46.55%,-1.187%,11.94%
COCCN1C(=O)CCC12CCN(c1ncc(F)cn1)CC2.O=C(O)C(F)(F)F,-4.529%,-0.6658%,-
CNC(=O)CN1C(=O)CCC12CCCN(Cc1ccccc1F)C2 (centres unmarked),-4.871%,-,5%
Cc1nc(C)n(CC2CCCN2CCC(=O)NC2CCCC2)n1 (centres unmarked),-1.523%,-,11.45%
O=C(C1CC1)N1C[C@H]2CCCN(S(=O)(=O)c3ccc(Cl)s3)[C@H]2C1,-,-,18.09%
N#Cc1ccnc(N2CCN(CC(O)c3cc(F)ccc3F)CC2)c1 (centres unmarked),-20.8%,-14.05%,19.85%
CCOC1Sc2nnc(C)n2N=C1c1ccc(Br)cc1 (centres unmarked),-8.579%,11.85%,22.63%
CCN(C)C(=O)c1ccc(N(C)Cc2cc(-c3cccnc3)no2)nc1,-9.253%,18.98%,17.6%
Cc1nc2ccc(S(=O)(=O)Nc3c(C)nn(CC(=O)O)c3C)cc2s1,12.13%,-39.95%,15.92%
COCCCC(=O)N(C)c1ccc(F)c(Cl)c1,-1.433%,-29.07%,5.645%
Cl.O=C(NC1CCCC1)C1(Cc2cc(C3CCOC3)no2)CCNCC1 (centres unmarked),5.68%,9.011%,-
CCC(C)(C)NC(=O)CN1C=Nc2ccccc2S1(=O)=O,-3.093%,-5.493%,21.71%
Cc1occc1CN(C)C(=O)Nc1ccc(=O)n(C)c1,4.225%,26.13%,15.66%
CCNC(=O)COc1ccccc1N1CCCC(C)C1 (centres unmarked),-2.533%,6.479%,5.16%
CS(=O)(=O)N1CCC2(CCCN(Cc3ccccn3)C2)CC1.O=C(O)C(F)(F)F,-37.86%,-28.18%,-
NC(=O)CN1CCC(C(=O)NCc2ccc3c(c2)OCCCO3)CC1,11.89%,22.35%,16.72%
Cc1cc(NC(=O)NCCOc2ccc(Cl)cn2)no1,-18.9%,-10.22%,5.415%
CSCCC(=O)N1CCN(CC(C)(C)O)CC1,-88.83%,-,11.18%
O[C@H]1CC[C@@H](Cc2cc(-c3ccc(F)cc3)on2)O[C@@H]1CNCC1CC1,-29.11%,18.17%,7.492%
CC(C)C1CCN(C(=O)NCC(=O)N(C)CC(F)(F)F)CC1,12.44%,-18.81%,9.309%
CC(C)(C)c1n[nH]c(C2CN(CCNC3CCCCC3)CCO2)n1 (centres unmarked),6.837%,-18.21%,13.99%
Cc1cc(CN(C)C(=O)c2cc3c([nH]c2=O)CCCC3=O)no1,18.39%,14.13%,9.841%
CCN(CC(=O)NC1(C)CCS(=O)(=O)C1)Cc1ccc(OC)c(F)c1 (centres unmarked),-14.3%,-33.98%,20.52%
Fc1cc(F)cc(CN2CCC(c3cc4ncccc4cn3)CC2)c1,17.06%,48.17%,15.22%
CN(c1cccnn1)C1CCN(C(=O)Cc2c[nH]c3ccccc23)CC1,8.881%,-,16.26%
COc1cc(Oc2ccc(C#N)cn2)ccc1CN1CCCC1,26.32%,27.7%,28.08%
Cc1nn(C)cc1C1CC(=O)Nc2c1cnn2C(C)(C)C (centres unmarked),13.43%,30.84%,11.11%
CCOCCN1CCN(c2ccc(CN(C)C)cn2)CC1,-2.013%,1.587%,15.22%
O=C1CC(N(C(=O)c2ccc(-n3cccc3)cc2)C2CC2)C(=O)N1 (centres unmarked),4.161%,-8.462%,8.424%
CN(C)CCN1CCOCC2(C1)CN(Cc1ccsc1)CCO2 (centres unmarked),-,-,19.86%
CC1COCCN1Cc1nc(C(C)(C)C)no1 (centres unmarked),13.11%,7.281%,17.72%
COCCCN1CCC(NC(=O)C(C)C)CC1,-3.475%,5.678%,4.5%
CCCc1cc(CNC2CCN(c3cc(C(C)C)nc(C)n3)CC2)on1,2.718%,-3.278%,19%

5 of the entries, repeated:

| structure | Mtb heat-shock | Mtb growth Cornell | LdMetRS |
|---|---|---|---|
| `CNC(=O)CN1C(=O)CCC12CCCN(Cc1ccccc1F)C2` (centres unmarked) | -4.871% | - | 5% |
| `NC(=O)CN1CCC(C(=O)NCc2ccc3c(c2)OCCCO3)CC1` | 11.89% | 22.35% | 16.72% |
| `Cl.O=C(NC1CCCC1)C1(Cc2cc(C3CCOC3)no2)CCNCC1` (centres unmarked) | 5.68% | 9.011% | - |
| `Cc1cc(CN(C)C(=O)c2cc3c([nH]c2=O)CCCC3=O)no1` | 18.39% | 14.13% | 9.841% |
| `O=C1CC(N(C(=O)c2ccc(-n3cccc3)cc2)C2CC2)C(=O)N1` (centres unmarked) | 4.161% | -8.462% | 8.424% |